The target of the assay is p35 of Bombyx mori nucleopolyhedrovirus (BmNPV), Flag-tagged (from pIZ-p35Flag) (Bombyx mori nucleopolyhedrovirus (BmNPV)) (UniProt P31354). Briefly: co-IP; BmN cells cotransfected with pIZ-p35Flag and pIZ-BmAgo2-HA; lysate immunoprecipitated overnight at 4°C with anti-Flag magnetic beads; beads washed five times with PBS; Western blot.

Sequences of proteins named here, by UniProt entry; tags and fusion partners are left off.
UniProt P31354: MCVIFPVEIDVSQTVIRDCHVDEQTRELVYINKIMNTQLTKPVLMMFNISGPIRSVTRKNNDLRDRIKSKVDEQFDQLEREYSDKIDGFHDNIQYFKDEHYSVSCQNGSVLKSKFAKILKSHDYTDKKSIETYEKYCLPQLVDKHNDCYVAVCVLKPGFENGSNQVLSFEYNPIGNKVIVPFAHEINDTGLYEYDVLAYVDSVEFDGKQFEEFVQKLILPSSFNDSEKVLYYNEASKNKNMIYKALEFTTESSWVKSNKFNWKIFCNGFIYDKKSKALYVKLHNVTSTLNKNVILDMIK
UniProt Q59HV7: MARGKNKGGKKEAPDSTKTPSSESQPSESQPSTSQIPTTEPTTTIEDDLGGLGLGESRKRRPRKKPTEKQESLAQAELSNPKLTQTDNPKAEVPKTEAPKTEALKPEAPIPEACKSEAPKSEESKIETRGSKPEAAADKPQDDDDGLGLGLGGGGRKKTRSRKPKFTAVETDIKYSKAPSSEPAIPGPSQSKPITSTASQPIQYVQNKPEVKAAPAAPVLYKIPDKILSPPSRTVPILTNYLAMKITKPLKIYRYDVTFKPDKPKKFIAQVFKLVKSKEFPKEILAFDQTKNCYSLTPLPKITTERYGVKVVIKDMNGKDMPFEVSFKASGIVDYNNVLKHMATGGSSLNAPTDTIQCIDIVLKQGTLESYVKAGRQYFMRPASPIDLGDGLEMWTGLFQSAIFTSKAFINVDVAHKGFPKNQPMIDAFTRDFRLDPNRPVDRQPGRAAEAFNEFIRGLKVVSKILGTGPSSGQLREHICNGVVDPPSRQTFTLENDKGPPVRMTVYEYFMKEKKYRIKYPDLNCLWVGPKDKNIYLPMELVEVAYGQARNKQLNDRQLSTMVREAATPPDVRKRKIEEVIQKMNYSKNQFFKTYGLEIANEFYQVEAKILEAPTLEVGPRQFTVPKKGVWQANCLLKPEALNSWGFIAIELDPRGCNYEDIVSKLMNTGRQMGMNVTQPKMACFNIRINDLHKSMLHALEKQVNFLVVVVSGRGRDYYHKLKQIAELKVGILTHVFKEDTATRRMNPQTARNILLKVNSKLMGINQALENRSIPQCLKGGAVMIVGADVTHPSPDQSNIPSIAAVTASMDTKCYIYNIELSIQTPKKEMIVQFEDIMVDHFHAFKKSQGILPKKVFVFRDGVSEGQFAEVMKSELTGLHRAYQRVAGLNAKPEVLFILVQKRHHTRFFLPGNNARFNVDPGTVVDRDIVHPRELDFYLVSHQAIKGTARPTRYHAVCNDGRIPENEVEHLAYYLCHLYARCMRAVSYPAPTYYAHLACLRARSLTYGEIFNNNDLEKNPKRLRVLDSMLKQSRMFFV

No constants are given. Whether binding was seen depends on the method and setting. In cells and extracts the contact can be indirect.

Consider one substance from publication PMC8895250.

Regarding “Bombyx mori Argonaute-2, HA-tagged (from pIZ-BmAgo2-HA) (from UniProt Q59HV7 1-1038)”, the binding entry was “no binding”.
